B1: 4Ig: four immunoglobulin-like domains of Neogenin, amino acids 1 to 383 of Accession No. AAC59662 (SEQ ID NO:1) (protein, listed as Gallus gallus)
chain: RSGPRSPLTGSVVRTFTPFYFLVEPMDILSVRGASVIMNCSSYCETPPKIEWKKDGTLLNLVSDDRRQLLPDGSLLINSVVHSKHNKPDEGYYQCVATVESLGSIVSRTAKLTVAGLPRFTSQPELSSVYKGNSAILNCEVNVDLAPFVRWEQDRQPLSLDDRVFKLPSGALLIGNATDTDGGFYRCVIESGGTPKYSEEAELKILPDPEEPQSLVFVRQPSSLTKVTGQNAVFPCVAGGFPTPYVRWTKNGEELITEDSERFALRAGGSLLISDVTEEDVGTYTCIADNENETIEAQAELAVQVPPEFLKRPANIYAHESMDIVFECEVTGKPTPTVKWVKNGDVVIPSDYFKIVKEHNLQVLGLVKSDEGFYQCIAENDVGNAQAGAQLIILDLDVAIPTLPPTSLTSATNDHLAPATTGPLPTAPRDVVATLVSTRFIRLTWRTPVSDPQGDNLTYSIFYTKEGINRERVENTSRPGETQVMIQNLMPETVYVFRVVAQNKHGHGESSAPLKVATQPEVQLPGPAPNIRAYAGSPTSVTVTWETPLSGNGEIQNYKLYYMEKGQDSEQDVDVAGLSYTITGLKKYTEYSFRVVAYNKHGPGVSTQDVVVRTLSDVPSAAPQNLTLEARNSKSIMLHWQPPPAGTHSGQITGYKIRYRKVSRKSDVTESVGGTQLFQLIEGLERGTEYNFRIAAMTVNGTGPATDWVSAETFESDLDESRVPEVPSSLHVRPLVTSIVVSWTPPENQNIVVRGYAIGYGIGSPHAQTIKVDYKQRYYTIENLDPSSHYVITLKAFNNVGEGIPLYESAVTRPHSDTSEVDLFVINAPYTPVPDPSPMMPPVGVQASILSHDTIRITWADNSLPKNQKITDARYYTVRWKTNIPANTKYKTANATTLSYLVTGLKPNTLYEFSVMVTKGRRSSTWSMTAHGTTFELVPTSPPKDVTVVSKEGKPRTIIVNWQPPSEANGKITGYIIYYSTDVNAEIHDWVIEPVVGNRLTHQIQELTLDTPYYFKIQARNSKGMGPMSEAVQFRTPKAESSDKMPNDQASGSAGKGSRPVDVGPDYKPPLSGSNSPHGSPTSPLDSNMLLVIIVSVGVITIVIVVIVAVFCTRRTTSHQKKKRAACKSVNGSHKYKGNSKDVKPPDLWIHHERLELKPIDKSPDPNPIMTDTPIPRNSQDITPVDNSMDSNIHQRRNSYRGHESEDSMSTLAGRRGMRPKMMMPFDSQPPQPVISAHPIHSLDNPHHHFHSGSLASPTRSYLHHQVSPWPVGTSMSHSDRANSTESVRNTPSSDTMPASSSQPCADHQDPDSSSGAYLGSAQEEDAAQSLPTAHVRPSHPLKSFAVPAVPAAGSAYDPTLPSTPLLTQQAPSHPVHSVKTASIGTLGRTRPPMPVVVPSAPDVQETTRMLEDSESSYEPDELTKEMAHLEGLMKDLNAITTA
modifications: Neogenin - Accession No. AAC59662

Columns and labels:
[1] = tested on: RGC axons in injured optic nerve; assay: Optic nerve crush, RGC axon regeneration (GAP-43) and intraretinal integrity; type: in vivo, rat; conditions: GFAP staining
Description: All animals were female Sprague-Dawley rats weighing 250-300 g, which were kept in a pathogen free environment. […] Injections were performed using a 10-μl Hamilton syringe actuated by a computer controlled Picopump (World Precision Instruments). […] The needle was left in place for 10 min after each injection and slowly withdrawn to prevent reflux of the injected solutions up the needle tract.
Additionally, for crushing nerve surgical procedures, animals were placed in a stereotaxic frame and ventilated with isoflurane (2%; 0.8 L/min O2) through a gas anesthesia mask. […] The optic nerve was crushed using fine self-closing forceps for 6 seconds. Eventually, the orbital contents were gently returned to their original location and the initial incision was closed. Following surgery, under a heat lamp, animal were maintained at 37° C. in the normothermic condition and they were given Ketoprofen (5 mg/mL, dosage for rats: 0.1 mL/100 g bodyweight) and sterile saline to ease postsurgical recovery.
In order to evaluate the effects of 4Ig, N-Raft, and MβCD on RGC survival and regeneration after optic nerve crush, 4 μl intraocular injection of 4Ig (250 ng/μl) and N-Raft (150 ng/μl) solutions were delivered at 3 and 10 days after injury. Additionally, these two groups received 4Ig and N-Raft in a dose of 1 mg/kg, via intrajugular vein at 3 and 10 days postcrush. Separately, animals in MβCD group, received intraperitoneal injection of MβCD at 1000 mg/kg/week for 3 weeks after nerve crush on a once-a-day schedule. […]
The slides were then rinsed three times for 15 minutes in PBS before cover slipping with 50:50 glycerol/PBS. The total number of regenerating axon growth cones within bins of the optic nerve, beginning anterior to the crush site and proceeding distally, were quantified. […] A total of four equally spaced sections through the width of each optic nerve were examined and quantified using a Leica DM LFSA microscope (20× objective) with an Andor iXon 885+ camera, with EMgain applied.

injured spinal cord = assay: Spinal cord injury, immunostaining and quantitative analysis (NeuN, GFAP, lesion volume); type: in vivo, rat; conditions: after SCI

Molecule	effect on astroglia cells [1]	effect on astrocytes (staining) (injured spinal cord)
N-Raft: peptide spanning amino acids 28-73 of RGMa (SEQ ID NO:2) (SPCKILKCNSEFWAATSGSHHLGAEETPEFCTALRAYAHCTRRTAR; N-Raft - amino acids 28-73 of RGMa)	not affected	
methyl-β-cyclodextrin [MβCD, reference compound]	not affected	did not affect these cell populations
B1	not affected	did not affect these cell populations
